# Assay results from paper PMC4216001.
# Protein sequences, listed by entry. Tags and fused reporters are not part of them.
# UniProt Q60631: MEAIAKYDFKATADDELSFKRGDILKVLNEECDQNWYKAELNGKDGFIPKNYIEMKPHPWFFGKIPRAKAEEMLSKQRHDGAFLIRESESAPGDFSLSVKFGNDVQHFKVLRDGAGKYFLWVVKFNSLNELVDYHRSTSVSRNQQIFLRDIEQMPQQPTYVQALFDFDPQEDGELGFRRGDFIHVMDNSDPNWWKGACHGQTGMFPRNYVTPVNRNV
# No constants are given. Whether binding was seen depends on the method and setting. Binding seen in cells or lysates may run through a third protein. Some results given as binding are weak or reduced against the parent protein; the word gives no strength.
# Target: Grb2 (mouse (endogenous in primary mouse mammary epithelial cells)) (UniProt Q60631)
# Test: co-IP; anti-Grb2 immunoprecipitation (protein G Dynabeads) from post-nuclear NP-40 lysates (1% NP-40, 150 mM NaCl, 50 mM Tris-HCl, 10 mM EDTA, pH 8.0) of primary mouse mammary epithelial cells, control (+/df) and dab2 knockout (df/df), stimulated with TGF-beta (10 ng/ml) for 0, 5, 15, 30 and 90 min; blots for Sos, Dab2 and Grb2
substance,measurement,value
Sos (from UniProt Q62245 1-1319),binding,binds
